Values from PubChem BioAssay AID743454 (Peter MacCallum Cancer Centre, 2014).
Shown is one part, drawn at random, of about 18,000 reagents tested. Of all reagents, 450 (2.5%) were called active. 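Single biological run; no consistent viability z cut-off exists, so the class columns, not z-scores, define the calls.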 Entries without a mark were called inactive. Reagent sequences are not shown.

Aim: 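Search for knock-downs that restore vorinostat killing in resistant colon cancer cells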 (primary screen)
System: human HCT116-VR colon cancer cells, selected for vorinostat resistance
Reagents: siRNA pool against human genes, 40 nM siRNA pool
Time to read-out: vorinostat for 24 h, read-out about 72 h after transfection
Challenge: vorinostat at 2.5 µM final
Detection: 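Cell viability by CellTiter-Fluor and caspase 3/7 activity by luminescence, each scaled to mock wells per plate, duplicates averaged, then robust z-scored over all plates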
Reading the numbers: viability robust z-score: higher = more viable cells than screen typical; caspase robust z-score: higher = more caspase 3/7 activity than screen typical
Rule for the call: 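Hits are knock-downs in viability class RV1/RV2 or caspase class CA1/CA2, excluding ones that killed cells in the no-drug cell-count arm; hits then retested with single siRNAs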

gene knocked down	viability hit class	caspase hit class	viability robust z-score	caspase robust z-score
RAB22A (RAB22A, member RAS oncogene family)	no change	no change	0.42	-0.9
CYFIP2 (cytoplasmic FMR1 interacting protein 2)	no change	no change	-0.82	0.36
HADHA	no change	no change	-0.19	-0.33
TRMT1L (tRNA methyltransferase 1L)	no change	no change	0.75	1.23
ABCB7 (ATP binding cassette subfamily B member 7)	no change	no change	-0.55	-0.44
SLC25A34	no change	no change	0.66	0.01
MYOZ3 (myozenin 3)	no change	no change	1.27	0.86
KRT24 (keratin 24)	no change	no change	0.74	0.2
ASPHD1 (aspartate beta-hydroxylase domain containing 1)	no change	no change	-0.2	-0.59
KRTAP13-1 (keratin associated protein 13-1)	no change	no change	1.63	1.73
GPR107 (G protein-coupled receptor 107)	no change	no change	-1.66	-0.22
HPS4 (HPS4 biogenesis of lysosomal organelles complex 3 subunit 2)	no change	no change	-0.76	0.34
ARMC2 (armadillo repeat containing 2)	no change	no change	-0.8	0.46
JHY (junctional cadherin complex regulator)	no change	no change	0.34	-0.03
TLE5 (TLE family member 5, transcriptional modulator)	no change	no change	1.02	-0.13
CHRM3 (cholinergic receptor muscarinic 3)	no change	no change	-1.61	2.45
NAA25 (N-alpha-acetyltransferase 25, NatB auxiliary subunit)	no change	no change	-1.67	-0.6
OR8B12 (olfactory receptor family 8 subfamily B member 12)	no change	no change	-0.55	-0.89
HMGCS2 (3-hydroxy-3-methylglutaryl-CoA synthase 2)	no change	no change	-1.75	-0.45
SORD (sorbitol dehydrogenase)	no change	no change	-0.44	1.31
POLR2D (RNA polymerase II subunit D)	RV2 (reduced viability) (active)	CA2 (caspase activation)	-3.57	6.06
PRKAG2 (protein kinase AMP-activated non-catalytic subunit gamma 2)	no change	no change	0.34	1.32
ZNF280C (zinc finger protein 280C)	no change	no change	1.75	1.38

Look-ups from the list.
Under “caspase robust z-score”, CHRM3 (cholinergic receptor muscarinic 3) reads 2.45
Entry of KRTAP13-1 (keratin associated protein 13-1) in “caspase robust z-score”: 1.73
